# Cleaved PARP in drug-treated melanoma cells

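The test systems are human melanoma cell lines, treated with a pair of drugs for 72 h and then stained and imaged. The read-out is the fraction of cleaved-PARP-positive nuclei, in % of that fraction in the DMSO control; 200 means twice the control level of this apoptosis marker. Concentrations were fixed for each drug; these are the higher of two levels. The file gives one value for each pair and line, without errors, so small differences may be noise. Basal and induced levels differ widely between cell lines.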
This is part of the screen, not chosen by result.
A dash means that no value is listed here.

All values are for the listed drug together with selumetinib (0.075 µM): Cn1cnc2c(F)c(Nc3ccc(Br)cc3Cl)c(C(=O)NOCCO)cc21

Second drug	SK-MEL-30	IST-MEL1	RPMI-7951	LOX IMVI	MZ2-MEL	WM1716	SK-MEL-5	C32	501mel	A375
Cc1nc(Nc2ncc(C(=O)Nc3c(C)cccc3Cl)s2)cc(N2CCN(CCO)CC2)n1 at 0.02 µM	21.2	189	795	96.5	420	189	148	395	-	239
COC(=O)c1sccc1S(=O)(=O)Nc1ccc(Nc2ccccc2)cc1OC at 5 µM	128	135	187	122	471	187	53.3	170	634	256
CN(c1ncccc1CNc1nc(Nc2ccc3c(c2)CC(=O)N3)ncc1C(F)(F)F)S(C)(=O)=O at 0.4 µM	227	58.1	120	149	256	327	288	789	-	284
CCc1ccc(CCOc2ccc(CC3SC(=O)NC3=O)cc2)nc1 (stereo not given) at 10 µM	219	52.9	72.4	104	237	74.0	255	90.5	225	148
Nc1ccn([C@@H]2O[C@H](CO)[C@@H](O)C2(F)F)c(=O)n1 at 0.002 µM	89.1	168	311	142	223	176	171	63.4	-	166
N#Cc1c(O)c2c(-c3ccc(-c4ccccc4O)cc3)csc2[nH]c1=O at 10 µM	229	199	75.1	144	371	219	246	106	431	109
COc1cc2ncnc(Nc3ccc(Oc4ccccc4)cc3)c2cc1OC at 10 µM	185	82.1	47.9	177	177	173	193	180	284	119
CCCCCCCCCCCC1=C(O)C(=O)C=C(O)C1=O at 6 µM	288	261	32.7	51.0	328	134	54.0	104	195	181
C[C@@H]1CCN(C(=O)CC#N)C[C@@H]1N(C)c1ncnc2[nH]ccc12 at 5 µM	74.8	42.1	86.7	80.6	212	47.3	108	122	-	-
c1cc(-c2cnn3cc(-c4ccc(OCCN5CCCCC5)cc4)cnc23)ccn1 at 2 µM	107	85.5	172	109	699	119	41.4	113	158	51.7
COc1cc(Nc2ncc(F)c(Nc3ccc4c(n3)NC(=O)C(C)(C)O4)n2)cc(OC)c1OC at 2 µM	169	275	273	355	903	157	235	700	-	-
CC(=O)c1c(C)c2cnc(Nc3ccc(N4CCNCC4)cn3)nc2n(C2CCCC2)c1=O at 0.2 µM	140	35.8	93.6	65.3	300	128	152	90.3	-	207
COCC[n+]1c2c(n(Cc3cnccn3)c1C)C(=O)c1ccccc1C2=O at 0.002 µM	249	144	317	81.1	206	275	740	73.4	-	182
O=c1cc(-c2cccc3c2Sc2ccccc2S3)oc(N2CCOCC2)c1 at 5 µM	134	135	225	87.3	420	118	343	129	282	133
COc1cc([C@@H]2c3cc4c(cc3[C@@H](O[C@@H]3O[C@@H]5CO[C@@H](C)O[C@H]5[C@H](O)[C@H]3O)[C@H]3COC(=O)[C@H]23)OCO4)cc(OC)c1O at 0.1 µM	131	51.0	84.7	57.0	-	166	124	120	-	160
CCCS(=O)(=O)Nc1ccc(F)c(C(=O)c2c[nH]c3ncc(Cl)cc23)c1F at 0.4 µM	131	119	48.8	125	144	159	132	245	-	179
O=C(O)C(=O)Nc1sc2c(c1C(=O)O)CCNC2 at 8.33 µM	112	58.8	106	133	402	99.4	541	96.6	153	85.7
OCc1c[nH]c2ccccc12 at 4 µM	79.5	242	77.0	105	340	217	178	85.2	-	174
O=C(CCCCCCC(=O)Nc1ccccc1)NO at 0.4 µM	66.3	72.1	192	87.8	511	704	510	211	-	-
O=C(Nc1cccc(Cl)c1)Nc1ncc(CCNc2ncnc3ccsc23)s1 at 0.004 µM	69.3	118	143	84.1	486	68.2	353	327	-	-
N.N.[Cl][Pt][Cl] at 8 µM	118	87.3	57.6	119	206	196	133	217	-	114
Cn1nnc2c(C(N)=O)ncn2c1=O at 10 µM	192	235	90.9	99.7	400	918	66.5	108	-	150
CCN(CC)CCNC(=O)c1c(C)[nH]c(/C=C2\C(=O)Nc3ccc(F)cc32)c1C at 2 µM	532	159	93.5	54.7	926	243	531	287	-	139
Cn1cc(/C=C2\C(=O)Nc3cccnc32)c2ccccc21 at 2 µM	118	164	108	142	174	88.4	228	88.9	190	376
Cc1cc(Nc2cc(N3CCN(C)CC3)nc(Sc3ccc(NC(=O)C4CC4)cc3)n2)n[nH]1 at 0.03 µM	264	92.2	79.8	207	645	68.6	209	93.3	-	189
Cc1cc(SCc2sc(-c3ccc(C(F)(F)F)c(F)c3)nc2C)ccc1OCC(=O)O at 10 µM	126	131	178	66.6	265	171	176	95.1	203	118
COc1ccc2c(c1)CCC1C2CCC2(C)C(NCCCCCCN3C(=O)C=CC3=O)CCC12 (stereo not given) at 2 µM	235	46.0	375	166	114	137	133	118	136	126
CC(C)(C)c1cnc(CSc2cnc(NC(=O)C3CCNCC3)s2)o1 at 0.05 µM	272	47.5	151	112	567	118	100	362	-	-
COc1ccc(-c2ccc3c(N4CCOCC4)nc(N4C[C@@H](C)O[C@@H](C)C4)nc3n2)cc1CO at 0.1 µM	199	162	173	78.8	321	155	321	92.9	218	243
Cc1ccc(NC(=O)c2cccc(N(C)C)c2)cc1NC(=O)c1ccc(O)cc1 at 10 µM	86.5	221	105	181	285	255	184	274	-	-
CNC(=O)c1cc(Oc2ccc(NC(=O)Nc3ccc(Cl)c(C(F)(F)F)c3)cc2)ccn1 at 2 µM	205	41.6	71.4	135	260	182	122	36.6	-	210
NC(=O)c1ccc(N(C(N)=O)c2c(F)cccc2F)nc1-c1ccc(F)cc1F at 2 µM	74.7	48.1	237	32.8	212	73.8	190	149	-	193
Oc1nc(-c2ccc(C(F)(F)F)cc2)nc2c1CSCC2 at 10 µM	189	217	179	48.8	377	225	149	95.1	399	138
COc1ccc(COc2ccc(Cc3cnc(N)nc3N)cc2OC)cc1 at 5 µM	108	117	27.9	51.6	216	101	111	161	245	267
CN(C)S(=O)(=O)c1ccc2c(c1)/C(=C/c1cc3c([nH]1)CCCC3)C(=O)N2 at 2 µM	201	176	84.1	57.2	805	94.0	189	654	-	-
O=C(O)c1ccc2c(c1)nc(Nc1cccc(Cl)c1)c1ccncc12 at 2 µM	308	119	86.6	117	-	118	256	136	-	592
C#Cc1cccc(Nc2ncnc3cc(OCCOC)c(OCCOC)cc23)c1 at 4 µM	210	81.4	544	145	387	88.5	312	108	-	388
C[C@]1(O)C[C@@H](c2nc(-c3ccc4ccc(-c5ccccc5)nc4c3)c3c(N)nccn32)C1 at 2 µM	173	187	52.2	125	403	178	122	62.6	-	131

Repeated from the top, 3 entries:

Second drug	SK-MEL-30	IST-MEL1	RPMI-7951	LOX IMVI	MZ2-MEL	WM1716	SK-MEL-5	C32	501mel	A375
Cc1nc(Nc2ncc(C(=O)Nc3c(C)cccc3Cl)s2)cc(N2CCN(CCO)CC2)n1 at 0.02 µM	21.2	189	795	96.5	420	189	148	395	-	239
COC(=O)c1sccc1S(=O)(=O)Nc1ccc(Nc2ccccc2)cc1OC at 5 µM	128	135	187	122	471	187	53.3	170	634	256
CN(c1ncccc1CNc1nc(Nc2ccc3c(c2)CC(=O)N3)ncc1C(F)(F)F)S(C)(=O)=O at 0.4 µM	227	58.1	120	149	256	327	288	789	-	284

Data from the primary screen of doi:10.1371/journal.pone.0140310, rounded.